Measurements from PMC9998637.
Results are given in words; binding and its absence hold for the method and conditions named. In cells and extracts the contact can be indirect. Some entries that bind do so weakly or less than the wild type. Where a sequence is shown, tags or fusion partners need not be part of it.

Molecular target: HA-tagged wtp53 (UniProt P04637)
Test: co-IP; 293 T cells overexpressing TRIM3 and/or p53, lysed in HEPES buffer (50 mM HEPES pH 7.5, 150 mM NaCl, 1 mM MgCl2, 1 mM EGTA) with protease inhibitors, sonicated; extracts with antibodies against Flag and HA overnight at 4 °C, Protein A plus-Sepharose 4 h at 4 °C, five washes; western blot; the CoIP with HA-p53 constructs and v5-TRIM3 followed the same steps

| binding | Binder |
| --- | --- |
| binds | Flag-tagged TRIM3 (Tripartite-motif containing 3) (protein, UniProt O75382 1-744) MAKREDSPGPEVQPMDKQFLVCSICLDRYQCPKVLPCLHTFCERCLQNYIPAQSLTLSCPVCRQTSILPEQGVSALQNNFFISSLMEAMQQAPDGAHDPEDPHPLSVVAGRPLSCPNHEGKTMEFYCEACETAMCGECRAGEHREHGTVLLRDVVEQHKAALQRQLEAVRGRLPQLSAAIALVGGISQQLQERKAEALAQISAAFEDLEQALQQRKQALVSDLETICGAKQKVLQSQLDTLRQGQEHIGSSCSFAEQALRLGSAPEVLLVRKHMRERLAALAAQAFPERPHENAQLELVLEVDGLRRSVLNLGALLTTSATAHETVATGEGLRQALVGQPASLTVTTKDKDGRLVRTGSAELRAEITGPDGTRLPVPVVDHKNGTYELVYTARTEGELLLSVLLYGQPVRGSPFRVRALRPGDLPPSPDDVKRRVKSPGGPGSHVRQKAVRRPSSMYSTGGKRKDNPIEDELVFRVGSRGREKGEFTNLQGVSAASSGRIVVADSNNQCIQVFSNEGQFKFRFGVRGRSPGQLQRPTGVAVDTNGDIIVADYDNRWVSIFSPEGKFKTKIGAGRLMGPKGVAVDRNGHIIVVDNKSCCVFTFQPNGKLVGRFGGRGATDRHFAGPHFVAVNNKNEIVVTDFHNHSVKVYSADGEFLFKFGSHGEGNGQFNAPTGVAVDSNGNIIVADWGNSRIQVFDSSGSFLSYINTSAEPLYGPQGLALTSDGHVVVADAGNHCFKAYRYLQ |
| binds | v5-TRIM3 (protein, UniProt O75382 1-744) MAKREDSPGPEVQPMDKQFLVCSICLDRYQCPKVLPCLHTFCERCLQNYIPAQSLTLSCPVCRQTSILPEQGVSALQNNFFISSLMEAMQQAPDGAHDPEDPHPLSVVAGRPLSCPNHEGKTMEFYCEACETAMCGECRAGEHREHGTVLLRDVVEQHKAALQRQLEAVRGRLPQLSAAIALVGGISQQLQERKAEALAQISAAFEDLEQALQQRKQALVSDLETICGAKQKVLQSQLDTLRQGQEHIGSSCSFAEQALRLGSAPEVLLVRKHMRERLAALAAQAFPERPHENAQLELVLEVDGLRRSVLNLGALLTTSATAHETVATGEGLRQALVGQPASLTVTTKDKDGRLVRTGSAELRAEITGPDGTRLPVPVVDHKNGTYELVYTARTEGELLLSVLLYGQPVRGSPFRVRALRPGDLPPSPDDVKRRVKSPGGPGSHVRQKAVRRPSSMYSTGGKRKDNPIEDELVFRVGSRGREKGEFTNLQGVSAASSGRIVVADSNNQCIQVFSNEGQFKFRFGVRGRSPGQLQRPTGVAVDTNGDIIVADYDNRWVSIFSPEGKFKTKIGAGRLMGPKGVAVDRNGHIIVVDNKSCCVFTFQPNGKLVGRFGGRGATDRHFAGPHFVAVNNKNEIVVTDFHNHSVKVYSADGEFLFKFGSHGEGNGQFNAPTGVAVDSNGNIIVADWGNSRIQVFDSSGSFLSYINTSAEPLYGPQGLALTSDGHVVVADAGNHCFKAYRYLQ |
